{"source": "patent US20070123518A1", "about": "“Product designed to protentiate the therapeutic effects and to enhance the action of medicinal preparations” (priority 2003, published 2007)", "tested_on": "nociceptive response to electric irritation in rats", "data": [{"smiles": "CN1CC[C@]23c4c5ccc(O)c4O[C@H]2[C@@H](O)C=C[C@H]3[C@H]1C5", "note": "[Morphine, morphine]", "values": [{"measurement": "Threshold of nociceptive response, After injection", "setting": "30 minutes after single intraperitoneal injection", "value": "38.2 ± 2.8", "unit": "volt"}, {"measurement": "Threshold of nociceptive response, Prior to injection", "setting": "baseline of the group", "value": "29.7 ± 2.6", "unit": "volt"}]}]}
